# Source: the supplement of paper PMC8728848
# Some of the results follow.
# How the values were obtained:
# Test in all cases: glycan array binding signal (z-score within array); higher = stronger binding
# Settings in all cases: glycan notation: IUPAC condensed, linker removed
# [1] = biological target: Fuc(a1-2)[Gal(a1-3)]Gal(b1-4)GlcNAc(b1-2)Man(a1-3)[Fuc(a1-2)[Gal(a1-3)]Gal(b1-4)GlcNAc(b1-2)Man(a1-6)]Man(b1-4)GlcNAc(b1-4)GlcNAc
# Summary of the method: (§1)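 Glycan array binding is given as a within-array Z-score, which can be read as non-binding when negative. The arrays, 3228 of them, came from the Consortium for Functional Glycomics database and were retained only where the protein sequence was available. Z-scores were averaged across arrays of the same protein sequence at different concentrations or buffers and across linkers.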
# [2] = biological target: Fuc(a1-2)[Gal(a1-3)]Gal(b1-4)GlcNAc(b1-2)Man(a1-3)[Fuc(a1-2)[Gal(a1-3)]Gal(b1-4)GlcNAc(b1-2)Man(a1-6)]Man(b1-4)GlcNAc(b1-4)[Fuc(a1-6)]GlcNAc
# Summary of the method: as §1
# [3] = biological target: Fuc(a1-2)[Gal(a1-3)]Gal(b1-4)GlcNAc(b1-3)GalNAc
# Summary of the method: as §1
# [4] = biological target: Fuc(a1-2)[Gal(a1-3)]Gal(b1-4)GlcNAc(b1-3)[Fuc(a1-2)[Gal(a1-3)]Gal(b1-4)GlcNAc(b1-6)]GalNAc
# Summary of the method: as §1
# [5] = biological target: Fuc(a1-2)[Gal(a1-3)]Gal(b1-4)GlcNAc(b1-6)GalNAc
# Summary of the method: as §1
# [6] = biological target: Fuc(a1-2)[Gal(a1-3)]Gal(b1-4)[Fuc(a1-3)]Glc
# Summary of the method: as §1
# [7] = biological target: Fuc(a1-2)[Gal(a1-3)]Gal(b1-4)[Fuc(a1-3)]GlcNAc
# Summary of the method: as §1
# [8] = biological target: Fuc(a1-2)[Gal(a1-3)]Gal(b1-4)[Fuc(a1-3)]GlcNAc(b1-3)GalNAc
# Summary of the method: as §1
# [9] = biological target: Fuc(a1-2)[Gal(a1-4)]Gal(b1-4)GlcNAc
# Summary of the method: as §1
# [10] = biological target: Fuc(a1-2)[GalNAc(a1-3)]Gal
# Summary of the method: as §1
# [11] = biological target: Fuc(a1-2)[GalNAc(a1-3)]Gal(b1-3)GalNAc(a1-3)[Fuc(a1-2)]Gal(b1-4)GlcNAc
# Summary of the method: as §1
# [12] = biological target: Fuc(a1-2)[GalNAc(a1-3)]Gal(b1-3)GalNAc(b1-3)Gal(a1-4)Gal(b1-4)Glc
# Summary of the method: as §1
# [13] = biological target: Fuc(a1-2)[GalNAc(a1-3)]Gal(b1-3)GlcNAc
# Summary of the method: as §1
# [14] = biological target: Fuc(a1-2)[GalNAc(a1-3)]Gal(b1-3)GlcNAc(b1-2)Man(a1-3)[Fuc(a1-2)[GalNAc(a1-3)]Gal(b1-3)GlcNAc(b1-2)Man(a1-6)]Man(b1-4)GlcNAc(b1-4)GlcNAc
# Summary of the method: as §1
# [15] = biological target: Fuc(a1-2)[GalNAc(a1-3)]Gal(b1-3)GlcNAc(b1-2)Man(a1-3)[Fuc(a1-2)[GalNAc(a1-3)]Gal(b1-3)GlcNAc(b1-2)Man(a1-6)]Man(b1-4)GlcNAc(b1-4)[Fuc(a1-6)]GlcNAc
# Summary of the method: as §1
# [16] = biological target: Fuc(a1-2)[GalNAc(a1-3)]Gal(b1-3)GlcNAc(b1-3)GalNAc
# Summary of the method: as §1
# [17] = biological target: Fuc(a1-2)[GalNAc(a1-3)]Gal(b1-3)GlcNAc(b1-6)GalNAc
# Summary of the method: as §1
# [18] = biological target: Fuc(a1-2)[GalNAc(a1-3)]Gal(b1-4)Glc
# Summary of the method: as §1
# [19] = biological target: Fuc(a1-2)[GalNAc(a1-3)]Gal(b1-4)GlcNAc
# Summary of the method: as §1
# [20] = biological target: Fuc(a1-2)[GalNAc(a1-3)]Gal(b1-4)GlcNAc(b1-2)Man
# Summary of the method: as §1
# [21] = biological target: Fuc(a1-2)[GalNAc(a1-3)]Gal(b1-4)GlcNAc(b1-2)Man(a1-3)[Fuc(a1-2)[GalNAc(a1-3)]Gal(b1-4)GlcNAc(b1-2)Man(a1-6)]Man(b1-4)GlcNAc(b1-4)GlcNAc
# Summary of the method: as §1
# [22] = biological target: Fuc(a1-2)[GalNAc(a1-3)]Gal(b1-4)GlcNAc(b1-2)Man(a1-3)[Fuc(a1-2)[GalNAc(a1-3)]Gal(b1-4)GlcNAc(b1-2)Man(a1-6)]Man(b1-4)GlcNAc(b1-4)[Fuc(a1-6)]GlcNAc
# Summary of the method: as §1
# [23] = biological target: Fuc(a1-2)[GalNAc(a1-3)]Gal(b1-4)GlcNAc(b1-3)Gal(b1-4)GlcNAc
# Summary of the method: as §1
# [24] = biological target: Fuc(a1-2)[GalNAc(a1-3)]Gal(b1-4)GlcNAc(b1-3)Gal(b1-4)GlcNAc(b1-3)Gal(b1-4)GlcNAc
# Summary of the method: as §1
# [25] = biological target: Fuc(a1-2)[GalNAc(a1-3)]Gal(b1-4)GlcNAc(b1-3)GalNAc
# Summary of the method: as §1
# [26] = biological target: Fuc(a1-2)[GalNAc(a1-3)]Gal(b1-4)GlcNAc(b1-3)[Fuc(a1-2)[GalNAc(a1-3)]Gal(b1-4)GlcNAc(b1-6)]GalNAc
# Summary of the method: as §1
# [27] = biological target: Fuc(a1-2)[GalNAc(a1-3)]Gal(b1-4)GlcNAc(b1-6)GalNAc
# Summary of the method: as §1
# [28] = biological target: Fuc(a1-2)[GalNAc(a1-3)]Gal(b1-4)[Fuc(a1-3)]GlcNAc
# Summary of the method: as §1
# [29] = biological target: Fuc(a1-2)[GalNAc(a1-3)]Gal(b1-4)[Fuc(a1-3)]GlcNAc(b1-3)GalNAc
# Summary of the method: as §1
# [30] = biological target: Fuc(a1-2)[GalNAc(a1-4)]Gal(b1-4)GlcNAc
# Summary of the method: as §1
# [31] = biological target: Fuc(a1-2)[GalNAc(b1-3)]Gal
# Summary of the method: as §1
# [32] = biological target: Fuc(a1-3)GlcNAc
# Summary of the method: as §1
# [33] = biological target: Fuc(a1-3)[Gal(b1-4)]Glc6S
# Summary of the method: as §1
# [34] = biological target: Fuc(a1-3)[Gal(b1-4)]GlcNAc
# Summary of the method: as §1
# [35] = biological target: Fuc(a1-3)[Gal(b1-4)]GlcNAc(b1-2)Man
# Summary of the method: as §1
# [36] = biological target: Fuc(a1-3)[Gal(b1-4)]GlcNAc(b1-2)Man(a1-3)[Fuc(a1-3)[Gal(b1-4)]GlcNAc(b1-2)Man(a1-6)]Man(b1-4)GlcNAc(b1-4)GlcNAc
# Summary of the method: as §1
# [37] = biological target: Fuc(a1-3)[Gal(b1-4)]GlcNAc(b1-2)Man(a1-3)[Fuc(a1-3)[Gal(b1-4)]GlcNAc(b1-2)Man(a1-6)]Man(b1-4)GlcNAc(b1-4)[Fuc(a1-6)]GlcNAc
# Summary of the method: as §1
# [38] = biological target: Fuc(a1-3)[Gal(b1-4)]GlcNAc(b1-3)Gal(b1-3)[Fuc(a1-4)]GlcNAc
# Summary of the method: as §1
# [39] = biological target: Fuc(a1-3)[Gal(b1-4)]GlcNAc(b1-3)Gal(b1-4)[Fuc(a1-3)]GlcNAc
# Summary of the method: as §1
# [40] = biological target: Fuc(a1-3)[Gal(b1-4)]GlcNAc(b1-3)Gal(b1-4)[Fuc(a1-3)]GlcNAc(b1-3)Gal(b1-4)[Fuc(a1-3)]GlcNAc
# Summary of the method: as §1
# [41] = biological target: Fuc(a1-3)[Gal(b1-4)]GlcNAc(b1-3)GalNAc
# Summary of the method: as §1
# [42] = biological target: Fuc(a1-3)[Gal(b1-4)]GlcNAc(b1-6)GalNAc
# Summary of the method: as §1
# [43] = biological target: Fuc(a1-3)[Gal(b1-4)]GlcNAc(b1-6)[Gal(b1-3)GlcNAc(b1-3)]Gal(b1-4)Glc
# Summary of the method: as §1
# [44] = biological target: Fuc(a1-3)[Gal(b1-4)]GlcNAc6S
# Summary of the method: as §1
# [45] = biological target: Fuc(a1-3)[Gal3S(b1-4)]Glc
# Summary of the method: as §1
binder,measurement,setting,value
"AFL6 (Aspergillus fumigatus), Q4WKJ1 (protein) MSFHLTAEDIRIEDGHRLVARLRNADGDLQDASIDLNTCLGNDNGHFQWDGVDFSHSAQDVHFAIEGGGQVPVLRAQLANQDGEFQDADVNLSERIENINGEFVFH",glycan array binding signal (z-score),[1],0.717
same,glycan array binding signal (z-score),[2],-0.281
same,glycan array binding signal (z-score),[3],-0.552
same,glycan array binding signal (z-score),[4],0.599
same,glycan array binding signal (z-score),[5],0.116
same,glycan array binding signal (z-score),[6],-0.609
same,glycan array binding signal (z-score),[7],0.576
same,glycan array binding signal (z-score),[8],-0.802
same,glycan array binding signal (z-score),[9],-0.097
same,glycan array binding signal (z-score),[10],0.228
same,glycan array binding signal (z-score),[11],-0.499
same,glycan array binding signal (z-score),[12],0.411
same,glycan array binding signal (z-score),[13],-0.256
same,glycan array binding signal (z-score),[14],-0.01
same,glycan array binding signal (z-score),[15],-0.071
same,glycan array binding signal (z-score),[16],0.633
same,glycan array binding signal (z-score),[17],-0.324
same,glycan array binding signal (z-score),[18],-0.426
same,glycan array binding signal (z-score),[19],0.222
same,glycan array binding signal (z-score),[20],-0.552
same,glycan array binding signal (z-score),[21],0.133
same,glycan array binding signal (z-score),[22],0.106
same,glycan array binding signal (z-score),[23],-0.619
same,glycan array binding signal (z-score),[24],0.4
same,glycan array binding signal (z-score),[25],-0.656
same,glycan array binding signal (z-score),[26],-0.309
same,glycan array binding signal (z-score),[27],-0.264
same,glycan array binding signal (z-score),[28],-0.067
same,glycan array binding signal (z-score),[29],0.26
same,glycan array binding signal (z-score),[30],0.151
same,glycan array binding signal (z-score),[31],-0.373
same,glycan array binding signal (z-score),[32],-0.133
same,glycan array binding signal (z-score),[33],-0.213
same,glycan array binding signal (z-score),[34],-0.472
same,glycan array binding signal (z-score),[35],0.417
same,glycan array binding signal (z-score),[36],-0.027
same,glycan array binding signal (z-score),[37],0.415
same,glycan array binding signal (z-score),[38],-0.054
same,glycan array binding signal (z-score),[39],-0.438
same,glycan array binding signal (z-score),[40],-0.778
same,glycan array binding signal (z-score),[41],-0.214
same,glycan array binding signal (z-score),[42],0.436
same,glycan array binding signal (z-score),[43],0.098
same,glycan array binding signal (z-score),[44],0.001
same,glycan array binding signal (z-score),[45],-0.247

# Part of the list above, as tab-separated lines:
binder	measurement	setting	value
AFL6 (Aspergillus fumigatus), Q4WKJ1 (protein) MSFHLTAEDIRIEDGHRLVARLRNADGDLQDASIDLNTCLGNDNGHFQWDGVDFSHSAQDVHFAIEGGGQVPVLRAQLANQDGEFQDADVNLSERIENINGEFVFH	glycan array binding signal (z-score)	[32]	-0.133
same	glycan array binding signal (z-score)	[33]	-0.213
